From patent US20220332699A1 (SAGE THERAPEUTICS, INC., priority 2019, published 2022) come the findings set out here.

Amino acid sequences for entries named in this document (tags omitted).
UniProt Q9Y6A2, whole entry: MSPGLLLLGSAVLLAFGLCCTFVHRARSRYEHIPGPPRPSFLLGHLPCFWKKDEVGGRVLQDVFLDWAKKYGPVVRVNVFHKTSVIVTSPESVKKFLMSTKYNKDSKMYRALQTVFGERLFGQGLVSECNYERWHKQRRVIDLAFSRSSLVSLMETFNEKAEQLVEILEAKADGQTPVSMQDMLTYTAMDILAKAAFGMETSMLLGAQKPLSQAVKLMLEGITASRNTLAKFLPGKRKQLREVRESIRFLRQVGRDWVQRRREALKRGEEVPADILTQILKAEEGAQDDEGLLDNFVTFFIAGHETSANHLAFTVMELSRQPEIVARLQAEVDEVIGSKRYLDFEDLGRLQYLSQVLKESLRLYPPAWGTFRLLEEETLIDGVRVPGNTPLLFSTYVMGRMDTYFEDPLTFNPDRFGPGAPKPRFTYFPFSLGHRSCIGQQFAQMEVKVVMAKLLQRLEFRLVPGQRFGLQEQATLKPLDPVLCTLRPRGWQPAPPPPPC

The structures given here were assigned with low confidence; some may be wrong.

This experiment has as its target CYP46A1 (Homo sapiens, UniProt Q9Y6A2). The experiment is described as follows: CYP46A1 Enzyme Assay 2 (testosterone substrate, HPLC-MS). As to conditions: read-out: IC50 (CYP46A1 inhibitory activity). How it is done:
Briefly, in a 384-well plate format, 10 μL per well of an enzyme-substrate mixture of CYP46A1 (5 μM final concentration) and Testosterone ([…] final concentration) were dispensed to wells containing test compound. For CYP46A1 titration, 5 μL per well of serially diluted CYP46A1 (concentrations including 10 μM, 5 μM, and 2.5 μM) and Testosterone (concentration of […]) were dispensed. For Testosterone titration, 5 μL per well of serially diluted Testosterone (concentrations including 10 μM, 5 μM, and 2.5 μM) and CYP46A1 (concentration of 5 μM) were dispensed. The plates were centrifuged at 1000 rpm for 30 seconds, and then sealed and incubated at 37° C. for 30 minutes. The plate was removed from the incubator, and then 10 μL per well of NADPH-generating system were dispensed to initiate the reaction. The plates were incubated at 37° C. for 15 minutes, added with 80 μL per well of 100% methanol consisting 1 ng/ml diclofenac as internal standard, and then transferred for HPLC-MS.

Turning to `Cc1ccccc1CC1(C#N)CCN(C(=O)c2cccnc2-c2ccncc2)CC1`, the IC50 was less than 100 nM.
